Results taken from US20250188139A1.
No constants are given. Whether binding was seen depends on the method and setting. Some results given as binding are weak or reduced against the parent protein; the word gives no strength. For some assays here: Tags and fused reporters may be left off the sequences shown.

Sequences of proteins named here, by UniProt entry; tags and fusion partners are left off. A change or cut given only in a name is not applied to a line headed by its entry.
UniProt P35918: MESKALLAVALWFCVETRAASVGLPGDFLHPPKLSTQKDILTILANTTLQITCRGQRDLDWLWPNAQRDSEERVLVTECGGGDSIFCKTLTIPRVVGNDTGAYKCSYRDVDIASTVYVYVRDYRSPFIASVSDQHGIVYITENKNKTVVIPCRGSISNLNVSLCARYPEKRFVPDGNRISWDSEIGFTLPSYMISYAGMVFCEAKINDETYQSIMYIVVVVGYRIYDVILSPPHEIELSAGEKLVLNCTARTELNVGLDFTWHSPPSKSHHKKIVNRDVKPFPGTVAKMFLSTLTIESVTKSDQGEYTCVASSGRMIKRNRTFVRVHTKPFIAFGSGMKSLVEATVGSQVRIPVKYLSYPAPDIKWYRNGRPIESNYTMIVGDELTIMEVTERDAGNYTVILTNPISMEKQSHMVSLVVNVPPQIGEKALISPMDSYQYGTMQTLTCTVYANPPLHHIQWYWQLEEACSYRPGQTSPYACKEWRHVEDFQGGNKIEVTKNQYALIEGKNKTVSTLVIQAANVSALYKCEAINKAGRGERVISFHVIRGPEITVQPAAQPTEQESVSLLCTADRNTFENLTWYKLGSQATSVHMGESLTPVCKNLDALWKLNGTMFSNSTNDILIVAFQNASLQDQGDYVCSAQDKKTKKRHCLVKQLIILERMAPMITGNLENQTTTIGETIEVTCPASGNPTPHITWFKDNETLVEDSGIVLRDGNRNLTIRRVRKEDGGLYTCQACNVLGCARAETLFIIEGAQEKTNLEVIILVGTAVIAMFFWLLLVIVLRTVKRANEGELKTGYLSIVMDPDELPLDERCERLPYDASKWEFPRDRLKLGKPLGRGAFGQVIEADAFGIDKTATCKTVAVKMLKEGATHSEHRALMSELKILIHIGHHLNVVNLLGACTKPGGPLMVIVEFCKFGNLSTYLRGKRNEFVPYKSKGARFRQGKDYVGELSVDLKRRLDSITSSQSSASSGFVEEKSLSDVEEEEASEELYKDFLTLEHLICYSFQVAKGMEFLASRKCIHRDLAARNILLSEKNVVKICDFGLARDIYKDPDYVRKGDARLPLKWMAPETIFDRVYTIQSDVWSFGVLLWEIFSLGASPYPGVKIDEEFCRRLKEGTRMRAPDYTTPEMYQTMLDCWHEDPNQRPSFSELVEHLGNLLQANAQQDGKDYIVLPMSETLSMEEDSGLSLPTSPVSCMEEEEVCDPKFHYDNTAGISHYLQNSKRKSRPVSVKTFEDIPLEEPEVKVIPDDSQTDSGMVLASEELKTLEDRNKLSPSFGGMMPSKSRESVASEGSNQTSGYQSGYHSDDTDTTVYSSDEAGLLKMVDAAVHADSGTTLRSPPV

Experiments:
[1] = molecular target: T1, Murine VEGFR-3 extracellular domain (amino acids 25-329), AviTag, hexahistidine tag, biotinylated (murine) (UniProt P35917); assay: yeast display, receptor staining, flow cytometry (FIG. 4)
T1 sequence (chain (part 1 of 2), biotinylated with BirA ligase (AviTag)): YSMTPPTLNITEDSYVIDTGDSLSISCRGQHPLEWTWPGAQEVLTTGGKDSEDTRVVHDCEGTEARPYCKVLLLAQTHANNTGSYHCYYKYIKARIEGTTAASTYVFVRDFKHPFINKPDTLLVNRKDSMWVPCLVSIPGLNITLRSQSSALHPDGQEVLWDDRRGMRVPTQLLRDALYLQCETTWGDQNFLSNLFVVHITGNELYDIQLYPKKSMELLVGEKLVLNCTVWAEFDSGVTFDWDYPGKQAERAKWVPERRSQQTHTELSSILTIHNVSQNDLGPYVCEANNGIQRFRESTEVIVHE
T1 sequence (chain (part 2 of 2), biotinylated with BirA ligase (AviTag)): HHHHHH

[2] = molecular target: Murine VEGFR-2 extracellular domain (first three Ig domains, amino acids 20-326), AviTag, hexahistidine tag, biotinylated (murine) (UniProt P35918); assay: as above

B1: Murine VEGF-C (amino acids 112-215), wild type, displayed on the yeast surface with a GCN4 dimerization sequence (ligand, not shown: large carriers)
chain: TEILKSIDNEWRKTQCMPREVCIDVGKEFGAATNTFFKPPCVSVYRCGGCCNSEGLQCMNTSTGYLSKTLFEITVPLSQGPKPVTISFANHTSCRCMSKLDVYRRMKQLEDKIEELLSKIYHLENEIARLKKLIGER
binding [1]: binds | binding [2]: binds
